The exact form of at least one protein or probe is not confirmed.
Columns and labels:
[1] = test system: CMG helicase (Cdc45-MCM-GINS) + Pol epsilon exo-; assay: cryo-EM structure (4.9 A); conditions: ATPgS, 10 mM Mg(OAc)2; 5' desthiobiotin-TEG on strand 1; recombinant protein; protein details: FLAG,CBP; label: 5' desthiobiotin-TEG
[2] = test system: CMG helicase (Cdc45-MCM-GINS) + Pol epsilon exo-; assay: pull-down (desthiobiotin fork on streptavidin beads); conditions: 2 mM ATPgS, 10 mM Mg(OAc)2, 5' desthiobiotin-TEG on strand 1, pull-down: 25 mM HEPES 7.6, 100 mM KOAc, 10 mM Mg(OAc)2, 10% glycerol, 0.01% NP-40, 1 mM DTT, 30 C, recombinant protein, protein details: FLAG,CBP, label: 5' desthiobiotin-TEG

GCAGCCACGCTGGCCGTTTTACAACGTCGTGACTGGGCACTTGATCGGCCAACCTTTTTTTTTTTTTTTTTTTTTTTTTTTTTTTTTTTTTTTT / GGCAGGCAGGCAGGCAGGCAGGCCGTGCGCGTGGTCGTGCGGTTGGCCGATCAAGTGCCCAGTCACGACGTTGTAAAACGGCCAGCGTGGCTGC [Model fork DNA (leading/lagging-strand templates)]
binding result [1]: binds | binding result [2]: binds

From paper PMC6265327
